Drawing on article PMC11627473, this text covers binding for six molecules.

The chains behind the UniProt entries cited, without tags or fusion partners.
UniProt O95817: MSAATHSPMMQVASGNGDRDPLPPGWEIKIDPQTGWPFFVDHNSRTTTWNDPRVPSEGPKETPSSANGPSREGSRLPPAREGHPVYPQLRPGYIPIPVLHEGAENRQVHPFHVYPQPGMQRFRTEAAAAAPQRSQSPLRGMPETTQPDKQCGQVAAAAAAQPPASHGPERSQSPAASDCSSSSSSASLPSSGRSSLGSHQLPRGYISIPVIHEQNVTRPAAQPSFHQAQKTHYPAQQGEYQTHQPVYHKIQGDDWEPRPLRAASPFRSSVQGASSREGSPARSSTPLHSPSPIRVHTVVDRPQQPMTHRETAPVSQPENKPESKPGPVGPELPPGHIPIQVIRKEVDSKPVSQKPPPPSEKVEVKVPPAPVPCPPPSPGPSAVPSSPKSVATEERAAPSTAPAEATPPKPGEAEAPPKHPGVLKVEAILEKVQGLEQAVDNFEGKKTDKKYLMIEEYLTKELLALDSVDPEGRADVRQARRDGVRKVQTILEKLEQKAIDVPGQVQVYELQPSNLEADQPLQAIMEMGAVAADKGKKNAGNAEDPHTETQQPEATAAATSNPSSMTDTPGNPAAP
UniProt P48681: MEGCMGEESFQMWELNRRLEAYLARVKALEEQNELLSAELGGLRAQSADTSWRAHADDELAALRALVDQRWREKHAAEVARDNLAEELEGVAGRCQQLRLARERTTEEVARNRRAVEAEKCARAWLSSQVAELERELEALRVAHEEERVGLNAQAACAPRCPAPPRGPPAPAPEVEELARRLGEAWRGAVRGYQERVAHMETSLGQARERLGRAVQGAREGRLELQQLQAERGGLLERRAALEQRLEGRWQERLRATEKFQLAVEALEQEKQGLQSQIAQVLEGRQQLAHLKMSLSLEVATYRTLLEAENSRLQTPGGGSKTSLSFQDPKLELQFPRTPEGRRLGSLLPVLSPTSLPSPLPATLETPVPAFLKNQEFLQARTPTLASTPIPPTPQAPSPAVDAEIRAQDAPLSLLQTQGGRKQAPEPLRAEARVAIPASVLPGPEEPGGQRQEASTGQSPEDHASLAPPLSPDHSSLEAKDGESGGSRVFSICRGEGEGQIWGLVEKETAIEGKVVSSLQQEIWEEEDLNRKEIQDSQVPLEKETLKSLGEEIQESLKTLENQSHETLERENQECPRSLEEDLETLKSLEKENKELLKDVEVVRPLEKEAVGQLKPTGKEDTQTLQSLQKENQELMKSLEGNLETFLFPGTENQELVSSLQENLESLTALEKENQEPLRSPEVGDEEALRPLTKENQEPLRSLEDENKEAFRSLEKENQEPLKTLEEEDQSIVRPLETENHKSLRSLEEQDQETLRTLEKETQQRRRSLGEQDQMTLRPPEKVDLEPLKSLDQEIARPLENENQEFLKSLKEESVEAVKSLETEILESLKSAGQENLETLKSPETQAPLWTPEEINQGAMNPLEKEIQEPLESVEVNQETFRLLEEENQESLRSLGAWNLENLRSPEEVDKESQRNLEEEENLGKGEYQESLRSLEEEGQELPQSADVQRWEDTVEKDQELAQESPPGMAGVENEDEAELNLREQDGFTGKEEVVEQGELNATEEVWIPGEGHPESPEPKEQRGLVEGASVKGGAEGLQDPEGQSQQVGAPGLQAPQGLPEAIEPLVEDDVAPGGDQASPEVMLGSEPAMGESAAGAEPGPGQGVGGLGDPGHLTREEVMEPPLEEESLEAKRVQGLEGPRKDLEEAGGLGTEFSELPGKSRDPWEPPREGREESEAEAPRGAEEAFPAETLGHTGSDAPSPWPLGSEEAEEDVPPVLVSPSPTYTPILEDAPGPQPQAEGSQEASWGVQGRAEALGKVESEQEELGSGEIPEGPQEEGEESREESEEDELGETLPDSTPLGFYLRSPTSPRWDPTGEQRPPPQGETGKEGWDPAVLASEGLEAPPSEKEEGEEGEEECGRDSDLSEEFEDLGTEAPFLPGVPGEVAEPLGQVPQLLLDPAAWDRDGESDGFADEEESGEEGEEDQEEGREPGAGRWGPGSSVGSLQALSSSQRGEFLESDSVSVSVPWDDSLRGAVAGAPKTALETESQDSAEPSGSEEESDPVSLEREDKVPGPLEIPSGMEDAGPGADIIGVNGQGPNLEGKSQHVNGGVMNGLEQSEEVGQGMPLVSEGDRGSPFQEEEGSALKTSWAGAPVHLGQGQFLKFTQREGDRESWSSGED
UniProt P36405: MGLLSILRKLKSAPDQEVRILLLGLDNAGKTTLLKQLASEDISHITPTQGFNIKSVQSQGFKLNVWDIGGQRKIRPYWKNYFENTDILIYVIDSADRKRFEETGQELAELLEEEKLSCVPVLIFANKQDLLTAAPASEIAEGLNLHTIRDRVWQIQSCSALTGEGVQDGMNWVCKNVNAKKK
UniProt P48431: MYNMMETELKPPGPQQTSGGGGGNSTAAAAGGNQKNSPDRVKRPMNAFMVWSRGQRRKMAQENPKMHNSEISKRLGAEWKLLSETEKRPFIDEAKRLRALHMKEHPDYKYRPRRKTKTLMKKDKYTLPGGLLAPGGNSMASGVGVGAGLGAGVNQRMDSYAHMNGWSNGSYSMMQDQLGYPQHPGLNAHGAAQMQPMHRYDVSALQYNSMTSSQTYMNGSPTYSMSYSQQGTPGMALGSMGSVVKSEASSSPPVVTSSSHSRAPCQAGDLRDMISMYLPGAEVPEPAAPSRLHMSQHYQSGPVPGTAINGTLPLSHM
UniProt P35579: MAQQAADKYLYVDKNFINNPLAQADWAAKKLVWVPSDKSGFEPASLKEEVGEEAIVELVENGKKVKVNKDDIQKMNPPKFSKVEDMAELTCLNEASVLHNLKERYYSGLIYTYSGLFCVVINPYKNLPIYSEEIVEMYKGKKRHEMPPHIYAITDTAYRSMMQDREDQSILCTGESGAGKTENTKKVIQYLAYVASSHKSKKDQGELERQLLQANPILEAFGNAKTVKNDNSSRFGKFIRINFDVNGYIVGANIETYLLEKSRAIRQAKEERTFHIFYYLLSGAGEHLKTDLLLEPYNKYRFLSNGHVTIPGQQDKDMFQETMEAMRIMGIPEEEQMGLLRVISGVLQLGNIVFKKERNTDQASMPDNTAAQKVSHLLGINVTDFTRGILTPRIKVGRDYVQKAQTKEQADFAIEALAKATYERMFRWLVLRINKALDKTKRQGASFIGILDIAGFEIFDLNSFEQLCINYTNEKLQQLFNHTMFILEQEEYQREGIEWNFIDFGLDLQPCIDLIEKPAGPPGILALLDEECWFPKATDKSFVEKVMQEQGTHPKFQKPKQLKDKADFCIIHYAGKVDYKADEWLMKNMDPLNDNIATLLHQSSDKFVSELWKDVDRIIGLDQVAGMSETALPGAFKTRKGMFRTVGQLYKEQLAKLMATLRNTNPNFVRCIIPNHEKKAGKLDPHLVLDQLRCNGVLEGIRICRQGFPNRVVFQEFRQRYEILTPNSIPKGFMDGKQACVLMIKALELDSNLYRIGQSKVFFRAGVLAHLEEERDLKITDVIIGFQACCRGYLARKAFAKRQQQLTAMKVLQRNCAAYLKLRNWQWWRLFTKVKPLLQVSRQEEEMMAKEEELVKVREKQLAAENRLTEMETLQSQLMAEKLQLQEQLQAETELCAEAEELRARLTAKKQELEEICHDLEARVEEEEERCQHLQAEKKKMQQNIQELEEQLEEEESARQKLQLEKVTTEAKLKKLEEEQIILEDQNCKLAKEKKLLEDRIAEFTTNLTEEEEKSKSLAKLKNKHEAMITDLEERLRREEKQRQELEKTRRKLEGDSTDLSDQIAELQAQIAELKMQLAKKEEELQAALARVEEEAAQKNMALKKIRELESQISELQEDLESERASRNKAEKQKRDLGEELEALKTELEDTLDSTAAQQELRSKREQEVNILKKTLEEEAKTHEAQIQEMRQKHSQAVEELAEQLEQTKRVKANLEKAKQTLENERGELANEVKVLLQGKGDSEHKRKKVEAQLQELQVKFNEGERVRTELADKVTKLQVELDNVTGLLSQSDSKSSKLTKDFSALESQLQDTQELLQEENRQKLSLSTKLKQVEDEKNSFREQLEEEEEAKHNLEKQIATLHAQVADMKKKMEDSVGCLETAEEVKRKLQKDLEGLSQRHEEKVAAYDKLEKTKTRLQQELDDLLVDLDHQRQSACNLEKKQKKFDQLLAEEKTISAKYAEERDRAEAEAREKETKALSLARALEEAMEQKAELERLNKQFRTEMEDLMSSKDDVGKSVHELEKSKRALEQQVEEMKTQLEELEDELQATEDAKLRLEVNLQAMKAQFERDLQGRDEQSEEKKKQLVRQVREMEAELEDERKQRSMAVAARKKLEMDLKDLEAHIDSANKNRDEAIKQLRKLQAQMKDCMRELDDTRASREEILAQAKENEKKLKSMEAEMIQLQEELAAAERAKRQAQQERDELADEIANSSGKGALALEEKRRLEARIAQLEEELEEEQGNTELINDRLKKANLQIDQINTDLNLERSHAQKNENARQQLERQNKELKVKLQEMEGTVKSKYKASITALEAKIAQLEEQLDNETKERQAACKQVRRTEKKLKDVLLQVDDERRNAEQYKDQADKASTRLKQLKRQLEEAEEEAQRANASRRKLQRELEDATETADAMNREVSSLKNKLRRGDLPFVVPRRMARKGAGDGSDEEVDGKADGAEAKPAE
UniProt P08670: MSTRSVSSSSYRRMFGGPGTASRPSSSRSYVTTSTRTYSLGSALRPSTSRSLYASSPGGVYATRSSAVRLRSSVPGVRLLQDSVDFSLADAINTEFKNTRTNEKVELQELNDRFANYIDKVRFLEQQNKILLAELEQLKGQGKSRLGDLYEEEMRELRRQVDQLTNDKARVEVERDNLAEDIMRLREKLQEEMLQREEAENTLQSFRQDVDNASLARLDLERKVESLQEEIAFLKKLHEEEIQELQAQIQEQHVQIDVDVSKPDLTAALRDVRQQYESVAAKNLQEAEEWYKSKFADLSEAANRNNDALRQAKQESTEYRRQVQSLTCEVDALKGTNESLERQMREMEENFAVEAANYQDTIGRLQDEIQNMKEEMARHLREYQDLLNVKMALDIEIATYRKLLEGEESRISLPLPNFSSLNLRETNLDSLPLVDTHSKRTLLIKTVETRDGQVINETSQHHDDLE

Assay [1] concerns the target full‐length (FL) BAG3 (BCL2‐associated athanogenic protein 3), FLAG‐tagged (UniProt O95817). Description: affinity purification with mass spectrometry; FLAG‐Trap (DYKDDDDK Fab‐Trap) agarose pull‐down of FLAG‐tagged FL BAG3 from lysates (modified RIPA buffer, diluted) of U251 BAG3‐KO cells, cultured adherent (DMEM) or as spheres (Neurobasal‐A) for 72 h; 1 h at 4°C; compared with empty vector; label‐free LC–MS, triplicates; cut‐off Log2FC >1, −log10 p‐value >1.3.

For assay [2] the target is unchanged. The assay is described as above. This is another data set of the same source.

Like-named read-outs stand apart in the source and are kept apart here. No constants are given. Whether binding was seen depends on the method and setting. In cells and extracts the contact can be indirect. Here binding means that the protein was enriched with, or labelled near, the bait; the list need not be complete.

For “Nestin (NES) (from UniProt P48681 1-1621)”, the binding result in assay [1] was “binds”. On the same count and under the same terms, under “ADP‐ribosylation factor‐like protein 3 (ARL3) (from UniProt P36405 1-182)” stands “binds”; under “sex‐determining region Y‐Box 2 (SOX2) (from UniProt P48431 1-317)”, “binds”; under “Myosin heavy chain 9 (MYH9) (from UniProt P35579 1-1960)”, “binds”. On the same count and under the same terms, under “Vimentin (VIM) (from UniProt P08670 1-466)” stands “binds”.

B1: heat shock protein family B Member 8 (HSPB8) (protein, UniProt Q9UJY1 1-196)
chain: MADGQMPFSCHYPSRLRRDPFRDSPLSSRLLDDGFGMDPFPDDLTASWPDWALPRLSSAWPGTLRSGMVPRGPTATARFGVPAEGRTPPPFPGEPWKVCVNVHSFKPEELMVKTKDGYVEVSGKHEEKQQEGGIVSKNFTKKIQLPAEVDPVTVFASLSPEGLLIIEAPQVPPYSTFGESSFNNELPQDSQEVTCT
As to B1, the binding result in assay [2] was “binds”.
